From article PMC7819943, “Rice protein-binding microarrays: a tool to detect cis-acting elements near promoter regions in rice” come the findings set out here.

Some of the results follow.

The test deals with T1, OsSMF1 (Oryza sativa, UniProt Q6ZLB0 1-436).
T1 sequence: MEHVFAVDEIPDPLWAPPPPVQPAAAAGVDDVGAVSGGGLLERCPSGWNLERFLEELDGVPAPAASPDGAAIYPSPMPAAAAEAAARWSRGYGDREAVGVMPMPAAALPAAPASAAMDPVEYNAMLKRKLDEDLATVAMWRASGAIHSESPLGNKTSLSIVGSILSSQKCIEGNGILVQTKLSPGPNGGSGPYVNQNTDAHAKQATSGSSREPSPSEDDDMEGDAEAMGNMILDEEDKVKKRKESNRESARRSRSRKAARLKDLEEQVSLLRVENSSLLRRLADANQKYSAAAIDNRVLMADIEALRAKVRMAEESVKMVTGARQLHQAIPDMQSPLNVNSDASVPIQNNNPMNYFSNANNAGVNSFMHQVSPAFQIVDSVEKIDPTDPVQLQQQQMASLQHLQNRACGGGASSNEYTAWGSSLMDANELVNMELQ
Description: protein-binding microarray (RPBM); PBS, 2% BSA, 51.3 ng/ul salmon testes DNA, 50 uM zinc acetate, 200 nM TF, 25 C, 1 h; high values mean tight binding. The settings on record: protein: recombinant; tags: N-terminal polyhistidine and DsRed monomer fusion (pET32a); chain copies: 2; label: CyDye5-dUTP incorporated in the synthesized complementary strand; 3' TTTTT single-stranded linker to array surface; dsDNA, one strand shown. The procedure, abridged: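 Polyhistidine-tagged DsRed fusions of transcription factors, joined at the N-terminus, were expressed in E. coli BL21-CodonPlus and isolated on Ni–NTA. They were incubated at 200 nM for 1 h at 25 °C on a custom Agilent array, double-stranded and BSA-blocked, in PBS with 2% BSA, salmon testes DNA and 50 µM zinc acetate. The binding signal is per-feature fluorescence intensity (arbitrary units) read on an Axon 4000B scanner after washing.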
For the sequence “TGAAGATAATGACTCGACGATTGTCCAAAATATTCTTGCCCGGAGTCACCTAGTGCAG”, the binding signal was 5160 fluorescence intensity (a.u.).

For the sequence “TAGCTCGATCGCGCGGTCGCCGGAGCTGAGGTAGACGAAGCGGAGTCACCTAGTGCAG”, the binding signal was 4260 fluorescence intensity (a.u.).

For the sequence “TAGTAGCAGCAGAAGATGTCTATGCAAGGCGTTGTTCCTGCGGAGTCACCTAGTGCAG”, the binding signal is 16700 fluorescence intensity (a.u.).

Turning to “GAGCCGCCCTGCTGACCAGCATCGACGTCACCGCTCGGGCCGGAGTCACCTAGTGCAG”, the binding signal is 22800 fluorescence intensity (a.u.).

Consider “GGTGGGCCCCTAACCATCACCCCTACTACGTCACCAAGCTCGGAGTCACCTAGTGCAG”, for which the binding signal is 4410 fluorescence intensity (a.u.).

For the sequence “GTCCTCCATGAACAGTCCCACCGAGTTGTCTATTTACGTTCGGAGTCACCTAGTGCAG”, the binding signal was 3480 fluorescence intensity (a.u.).

For “CGTTTCCCTTCTTGGAGGCGTTGTCATGGCGTTCTTTCATCGGAGTCACCTAGTGCAG”, the binding signal is 3390 fluorescence intensity (a.u.).

As to “TGGGCCTACGTCAACTACGACATGCGTGGCCTTATCTTTTCGGAGTCACCTAGTGCAG”, the binding signal was 5480 fluorescence intensity (a.u.).

“TTTTATCCGGATGTGCGGCATCTTCGTTGTCTCCCTCGCTCGGAGTCACCTAGTGCAG”: the binding signal is 3720 fluorescence intensity (a.u.).

Turning to “TACAGTATAAGAGGACGGTAAGCAAATGTTCTGAAGAGTCCGGAGTCACCTAGTGCAG”, the binding signal was 35000 fluorescence intensity (a.u.).

For the sequence “CCTCAGCATAGTGGAGTGCAGTAGGTGACACTTCCAAATTCGGAGTCACCTAGTGCAG”, the binding signal is 3840 fluorescence intensity (a.u.).

In the case of “TGATCGTGATAAAGCGAATACTAGTCAAGCATGCGCGTGTCGGAGTCACCTAGTGCAG”, the binding signal was 3990 fluorescence intensity (a.u.).

“CACGCATAAATGCTTCGCGATTACTCATCTTCCGAGAGTACGGAGTCACCTAGTGCAG”: the binding signal was 3770 fluorescence intensity (a.u.).

In the case of “GCCTCCTCCCTGTCCGCCGCCGCCGCCGCCGCTCGCCGGACGGAGTCACCTAGTGCAG”, the binding signal was 3150 fluorescence intensity (a.u.).

Consider “GTGACCTATTGACTGTACCAGTATCCTTTTGCAAGATGGACGGAGTCACCTAGTGCAG”, for which the binding signal was 3410 fluorescence intensity (a.u.).

As to “ACGCGCTGGCTGAGCGCTGACGACGCGTCCCTCCTCCTTCCGGAGTCACCTAGTGCAG”, the binding signal is 3870 fluorescence intensity (a.u.).

Regarding “CATCACACAAACATCCCCGTCGCGTGGACTCGCGAACCCCCGGAGTCACCTAGTGCAG”, the binding signal was 3420 fluorescence intensity (a.u.).

Consider “ACGACATTCAATTCCAGTTGACGTGGCGCTGAGGTGTCTACGGAGTCACCTAGTGCAG”, for which the binding signal is 29300 fluorescence intensity (a.u.).

With “TTTCTCTGAACGACCGGCCACGTTAAACTAAGGCCAAGTCCGGAGTCACCTAGTGCAG”, the binding signal is 65500 fluorescence intensity (a.u.).

For the sequence “AGGCAGGGTGGGTGGGTGGTGGGCTTGCTCGCTCCGCGTCCGGAGTCACCTAGTGCAG”, the binding signal is 5810 fluorescence intensity (a.u.).

“TAACTGCCGAACTGTACTGACAGGTCATCCGGTCCCACCTCGGAGTCACCTAGTGCAG”: the binding signal is 7130 fluorescence intensity (a.u.).

On to “GCCGCCACGTGTGGGCCGCAGCCGCATCTCTTCTCTCTCTCGGAGTCACCTAGTGCAG”, for which the binding signal is 8900 fluorescence intensity (a.u.).

For “GGAGAACGGATGTGTATGGCATGGCATTACTCATGGATTACGGAGTCACCTAGTGCAG”, the binding signal was 3590 fluorescence intensity (a.u.).

Regarding “GCCGCCGCCGCCGCCGTCGGAGAGGCGCTCCGCCGCGGCGCGGAGTCACCTAGTGCAG”, the binding signal is 10300 fluorescence intensity (a.u.).

Take “TTTAGGAGTTTAGGGGTCGAGATATCCGGTTTTGTAGTTTCGGAGTCACCTAGTGCAG”: the binding signal is 22400 fluorescence intensity (a.u.).

Take “AAATCAACGGTGAGATTAGATAGTGCCATGTGGCGACTTACGGAGTCACCTAGTGCAG”: the binding signal is 24800 fluorescence intensity (a.u.).

“GGGATTTAGCTGTTGGTGTAGTGGGTGGAAGGCTAGAAGGCGGAGTCACCTAGTGCAG”: the binding signal was 3160 fluorescence intensity (a.u.).

For the sequence “GACTGATGAAGATAAAATTCAGGCTGTCAGCAATTGGCCTCGGAGTCACCTAGTGCAG”, the binding signal was 3680 fluorescence intensity (a.u.).

As for “CCAAACCTACACGTCCCAGTTCAGTCATTCATCCTGCTAGCGGAGTCACCTAGTGCAG”, the binding signal was 4890 fluorescence intensity (a.u.).

Regarding “GCGGCGCTGCTACTGTCGCCGCATAACCCTCGTCTTCACCCGGAGTCACCTAGTGCAG”, the binding signal is 26100 fluorescence intensity (a.u.).

As to “TCCCTTCCTGGCGCTGTCAGCTTGTGGGGTCGGGATGTCACGGAGTCACCTAGTGCAG”, the binding signal is 3300 fluorescence intensity (a.u.).

For “GACCTGGTCTTACATCACTTTCGTAATTGCTGCTTCGATTCGGAGTCACCTAGTGCAG”, the binding signal was 3490 fluorescence intensity (a.u.).

Regarding “CACTCAGATGGTCCCACATGTCATCCTCACAAGTGTCAATCGGAGTCACCTAGTGCAG”, the binding signal is 4210 fluorescence intensity (a.u.).

“CAGCGTGTCCTTCATGACACCGTGGATCCAGTGAATCGGCCGGAGTCACCTAGTGCAG”: the binding signal was 5940 fluorescence intensity (a.u.).

Consider “TTCAAGTCCAACCTCGGCCACATGCTCCGCCTCCGCCTCGCGGAGTCACCTAGTGCAG”, for which the binding signal was 3780 fluorescence intensity (a.u.).

Consider “GTTACCTGCATTTTGAGAGCCTCTCTCCTCTCATGGGTTGCGGAGTCACCTAGTGCAG”, for which the binding signal is 26100 fluorescence intensity (a.u.).

“TGGACGATTAGCCAAATGTAAAACGAGAAACACGAATAACCGGAGTCACCTAGTGCAG”: the binding signal is 18900 fluorescence intensity (a.u.).

Turning to “TTTCGTGGCTGATTCCCCTATTGGGCCTGGCCCAGTTGGACGGAGTCACCTAGTGCAG”, the binding signal was 3210 fluorescence intensity (a.u.).

In the case of “AATTTGTCCCTGGTGACCGTGACATCAGATTGAGTATCACCGGAGTCACCTAGTGCAG”, the binding signal was 3410 fluorescence intensity (a.u.).

In the case of “GCGCTCACCGCCTCTCCGTGGCGCTCCGTCAAGCTTCGCGCGGAGTCACCTAGTGCAG”, the binding signal was 3320 fluorescence intensity (a.u.).

For “TTACTTTGTGACCATCCGCGACGTCACGCTCACATCATTTCGGAGTCACCTAGTGCAG”, the binding signal is 4080 fluorescence intensity (a.u.).

“ATCGCGAGATGAATCTTTTGAGCCTATTTAGTCCATGATTCGGAGTCACCTAGTGCAG”: the binding signal is 4690 fluorescence intensity (a.u.).
